# From PubChem BioAssay AID2685 (National Center for Advancing Translational Sciences (NCATS), 2010)
# The list shows a part of the results. The main result of the screen is listed elsewhere. These columns were measured beside it and carry no call. Compounds called inactive in the main read-out are mostly missing here. The note in brackets gives the kind of curve behind each potency; many fits are weak.
# Test: qHTS Assay for Lipid Storage Modulators in Drosophila S3 Cells;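 for cell number change: cells counted by Cell Tracker Red CMTPX staining in the red channel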
# Conditions: BODIPY lipid droplet fluorescence, 18-24 h; for cell number change: measured here: cell count max response, cells fed with added oleic acid
# Outline: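 Laser-scanning cytometry quantifies lipid droplet accumulation (500–530 nm total intensity; droplet/cell object ratio) in oleic acid-fed (400 uM added) Drosophila S3 cells treated with a concentration series. 20 uM Triacsin C defined 100% inhibition.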
# [1] = measured here: cell number channel AC50, cells fed with added oleic acid
# [2] = measured here: lipid fluorescence (Fed channel) AC50, cells fed with added oleic acid
Structure (SMILES),cell number change,AC50 [1],AC50 [2]
CC1CN(c2nc3ccccc3cc2-c2ccccc2)CC(C)O1 (stereo not drawn),40%,"3260 nM [rising, partial curve]",
c1ccc2c(c1)ncn2CCCOc1ccc2c(c1)CCC2,-157%,"2910 nM [rising, single point]",
Cc1cc(Cl)ccc1OCC(=O)OC(C)C(=O)NC(N)=O (stereo not drawn),-10.6%,,
O=C(NC(=S)NC1CCCC1)c1ccccc1,14.1%,,"731 nM [rising, full curve, poor fit]"
COc1cc(NC(=S)Nc2ccc(N(C)C(C)=O)cc2)cc(OC)c1,-42.3%,,
N#C/C(=C/c1ccc(-c2ccc(C(=O)O)c(Cl)c2)o1)C(=O)NCC1CCCO1 (stereo not drawn),,"2060 nM [rising, partial curve]","461 nM [rising, partial curve, poor fit]"
Cc1csc(SCC(=O)O)n1,13.5%,"580 nM [falling, single point]",
COc1ccc(-c2coc3cc(OC4OC(CO)C(O)C(O)C4O)ccc3c2=O)cc1 (stereo not drawn),-20.2%,,"25900 nM [falling, single point]"
Cn1c(=O)c2c(nc(SCCN3CCCCC3)n2C)n(C)c1=O,,,"29100 nM [rising, single point]"
COc1ccc(CCN2C(=O)c3cccnc3C2=O)cc1OC,1.18%,,"164 nM [falling, full curve]"
COc1cc(C(=O)Nc2nnc(CC(C)C)s2)c([N+](=O)[O-])cc1OC,,"651 nM [falling, partial curve]","8200 nM [falling, partial curve]"
CNC(=S)/N=C/NOCc1c(Cl)cccc1Cl,-64.8%,"20600 nM [falling, single point]","1840 nM [falling, partial curve]"
COC(=O)CCC(=O)N1CN2CN(C(=O)CCC(=O)OC)CC([N+](=O)[O-])(C2)C1,28%,,"2910 nM [rising, single point]"
O=C(Nc1ccccc1[N+](=O)[O-])c1cc(S(=O)(=O)Nc2ccccn2)ccc1Cl,20.5%,,
O=C(CSc1nnc2ccc(-c3ccncc3)nn12)N1CCCCC1,-39.6%,"32600 nM [falling, single point]",
COc1ccc(Cn2c(C)nnc2-c2cnn(C)c2N)cc1OC,57.9%,"29100 nM [rising, single point]","29100 nM [rising, partial curve, poor fit]"
CCc1nc2sc3c(c2c(=O)o1)CCCC3,17.6%,,"10300 nM [rising, partial curve]"
Cc1cc2ccccn2c1C(=O)c1nc(NCc2ccccc2)ncc1Cl,74.9%,"6.51 nM [rising, full curve, poor fit]",
COc1ccccc1NC(=O)N1CCN(c2ccnc3cc(Cl)ccc23)CC1,-7.38%,,"29100 nM [falling, single point]"
CCN(CC(=O)Nc1cc(C)on1)CC(=O)Nc1ccccc1C(F)(F)F,-25%,"820 nM [falling, single point]","14600 nM [falling, partial curve]"

# Nothing new here: 16 of the compounds above.
Structure (SMILES),cell number change,AC50 [1],AC50 [2]
c1ccc2c(c1)ncn2CCCOc1ccc2c(c1)CCC2,-157%,"2910 nM [rising, single point]",
Cc1cc(Cl)ccc1OCC(=O)OC(C)C(=O)NC(N)=O (stereo not drawn),-10.6%,,
O=C(NC(=S)NC1CCCC1)c1ccccc1,14.1%,,"731 nM [rising, full curve, poor fit]"
COc1cc(NC(=S)Nc2ccc(N(C)C(C)=O)cc2)cc(OC)c1,-42.3%,,
N#C/C(=C/c1ccc(-c2ccc(C(=O)O)c(Cl)c2)o1)C(=O)NCC1CCCO1 (stereo not drawn),,"2060 nM [rising, partial curve]","461 nM [rising, partial curve, poor fit]"
Cc1csc(SCC(=O)O)n1,13.5%,"580 nM [falling, single point]",
COc1ccc(-c2coc3cc(OC4OC(CO)C(O)C(O)C4O)ccc3c2=O)cc1 (stereo not drawn),-20.2%,,"25900 nM [falling, single point]"
Cn1c(=O)c2c(nc(SCCN3CCCCC3)n2C)n(C)c1=O,,,"29100 nM [rising, single point]"
COc1ccc(CCN2C(=O)c3cccnc3C2=O)cc1OC,1.18%,,"164 nM [falling, full curve]"
COc1cc(C(=O)Nc2nnc(CC(C)C)s2)c([N+](=O)[O-])cc1OC,,"651 nM [falling, partial curve]","8200 nM [falling, partial curve]"
CNC(=S)/N=C/NOCc1c(Cl)cccc1Cl,-64.8%,"20600 nM [falling, single point]","1840 nM [falling, partial curve]"
COC(=O)CCC(=O)N1CN2CN(C(=O)CCC(=O)OC)CC([N+](=O)[O-])(C2)C1,28%,,"2910 nM [rising, single point]"
O=C(Nc1ccccc1[N+](=O)[O-])c1cc(S(=O)(=O)Nc2ccccn2)ccc1Cl,20.5%,,
O=C(CSc1nnc2ccc(-c3ccncc3)nn12)N1CCCCC1,-39.6%,"32600 nM [falling, single point]",
COc1ccc(Cn2c(C)nnc2-c2cnn(C)c2N)cc1OC,57.9%,"29100 nM [rising, single point]","29100 nM [rising, partial curve, poor fit]"
CCc1nc2sc3c(c2c(=O)o1)CCCC3,17.6%,,"10300 nM [rising, partial curve]"

# Remaining list, next part.

Structure (SMILES),cell number change,AC50 [1],AC50 [2]
CCCCNC(=O)Nc1ccon1,-1.61%,"326 nM [falling, full curve, poor fit]",
COCCC1CCCCN1C(=O)c1cc(COc2cccc(C(C)=O)c2)on1 (stereo not drawn),-34.3%,"16400 nM [falling, single point]",
CCC1CCCCN1C(=O)Cn1c(=O)n(CCCC(=O)NCc2ccco2)c(=O)c2sccc21 (stereo not drawn),10.1%,,
O=C(Nc1ccc(N2CCN(C(=O)c3ccc(Cl)cc3)CC2)cc1)c1ccc(Br)o1,-23%,,"16400 nM [falling, partial curve, poor fit]"
Cc1nc(NC(=O)/C=C/c2ccc(F)cc2)sc1C(=O)N(C)C,1.8%,,"4610 nM [rising, full curve, poor fit]"
Cc1cc(Br)ccc1NC(=O)CN1C(=O)C2CC=CCC2C1=O (stereo not drawn),-0.699%,,"6510 nM [falling, partial curve, poor fit]"
CCn1ncc([C@@H]2C[C@H]3CN(Cc4cccc(Cl)c4)C(=O)[C@]34CCCN24)c1C,-11.8%,,"2910 nM [falling, single point]"
O=c1c2ccccc2[nH]c(=S)n1CCc1ccccc1,-16.7%,"651 nM [falling, full curve, poor fit]",
COc1cc(NS(=O)(=O)c2ccc(NC(=O)COc3ccccc3C)cc2)nc(OC)n1,,"651 nM [falling, partial curve]","73.1 nM [falling, full curve, poor fit]"
CC(C)n1c(N2CCCC2)nc2c1c(=O)[nH]c(=O)n2C,,,"6510 nM [rising, single point]"
CC1CN(C(=O)CN2C(=O)c3ccccc3S2(=O)=O)CC(C)O1 (stereo not drawn),-4.57%,,"5.17 nM [rising, full curve, poor fit]"
CN1C[C@H](C(=O)N[C@]2(C)O[C@@]3(O)[C@@H]4CCCN4C(=O)[C@H](Cc4ccccc4)N3C2=O)CC2c3cccc4[nH]cc(c34)C[C@H]21 (stereo partly drawn),8.8%,,"1160 nM [rising, partial curve]"
C/C(=N\NC(=O)c1ccc(-c2ccccc2)cc1)c1cccc(N)c1,-1.1%,,"130 nM [falling, full curve, poor fit]"
COc1ccc(NC(=O)C(=O)NCC2CCCN2S(=O)(=O)c2ccc(C)cc2)cc1 (stereo not drawn),-39.2%,"16400 nM [falling, partial curve]","16400 nM [falling, single point]"
Cc1ccccc1CNc1nnnn1C,9.49%,,"7.31 nM [rising, full curve, poor fit]"
O=C(O)c1ccc(NS(=O)(=O)c2ccc(NC(=O)c3ccccc3Cl)cc2)cc1,-1.31%,,"29100 nM [rising, single point]"
O=C(NNc1cccc(Cl)n1)c1cccnc1Cl,-21.7%,"4.61 nM [falling, full curve, poor fit]","16400 nM [rising, partial curve, poor fit]"
CCOC(=O)c1cc(C(=O)OCC)cc(-n2c(C)cc(C(=O)CN3CCOCC3)c2C)c1,-1.29%,,"16400 nM [rising, single point]"
O=C(CSc1nnc(Cc2cc(=O)[nH]c(=O)[nH]2)n1-c1ccccc1)N1CCCC1,8.65%,,
COC(=O)CSc1nnc2n1C(C)(C)Cc1ccccc1-2,-4.83%,,

Structure (SMILES),cell number change,AC50 [1],AC50 [2]
CC(C)CCNC(=O)CC1Nc2c3ccccc3nc(=S)n2C1=O (stereo not drawn),0.668%,"116 nM [falling, full curve, poor fit]","820 nM [falling, full curve, poor fit]"
O=C1/C(=C\c2cccc(O)c2O)SC(=S)N1Cc1ccccc1,-38.9%,"11600 nM [falling, single point]",
O=S(=O)(c1cccs1)N1CCN(C/C=C/c2ccccc2)CC1,,,"580 nM [falling, single point]"
C=CCSC1=N/C(=C\c2ccc(C(=O)O)cc2)C(=O)S1,-1.27%,,
NS(=O)(=O)c1ccc(N/N=C2/CCCCC2C2CCCCC2)c([N+](=O)[O-])c1 (stereo not drawn),-92.8%,"29100 nM [falling, single point]",
NC(=O)C1CC(=O)N(c2ccc(OCC(=O)Nc3ccccc3F)cc2)C1 (stereo not drawn),-16.5%,,
Cc1[nH]c2ccccc2c1/C=N/NC(=O)c1cc(-c2ccccc2)n[nH]1,-21%,,"29100 nM [falling, single point]"
O=C(Cn1c(CC(=O)N2CCOCC2)nc2ccccc21)Nc1ccc2c(c1)OC(F)(F)O2,-30.8%,,"146 nM [falling, full curve, poor fit]"
COC(=O)C(C(=O)OC)=C(/C=C/N(C)C)N(C)C,-13.4%,,"4610 nM [falling, full curve]"
COc1cc(C2NC(=O)N(C)C(C)=C2C(=O)OCc2ccccc2)cc(Br)c1O (stereo not drawn),-0.647%,,"4.11 nM [falling, full curve, poor fit]"
Cc1cccc(Oc2ccc(Cl)cc2N)c1,,"6510 nM [rising, single point]","2910 nM [rising, single point]"
CN1CCC(NC(=S)Nc2cccc([N+](=O)[O-])c2)CC1,-29.4%,"2590 nM [falling, full curve, poor fit]",
O=C(O)CC(C(=O)NC1CCCCC1)C1CCCO1 (stereo not drawn),-15.4%,,"29100 nM [falling, single point]"
COc1ccc(C)cc1NC(=O)Cn1cnnn1,-25%,"366 nM [falling, full curve, poor fit]","6.51 nM [falling, full curve, poor fit]"
CCC(C)[C@H](NC(=O)[C@@H]1CSC2c3ccccc3C(=O)N21)C(=O)NCC1CCCO1 (stereo partly drawn),-25%,,
COc1ccc2[nH]c(=O)c(CN(Cc3ccc4c(c3)OCO4)C(C)=O)cc2c1,1.81%,,"2310 nM [rising, full curve]"
CN(C)c1cccc(N(C)C)c1CNC(=O)NC(=O)c1c(F)cccc1F,-16.6%,,
Cc1c(NC(=O)c2ccc(N(C)S(C)(=O)=O)cc2)c(=O)n(-c2ccccc2)n1C,-29%,,"411 nM [falling, single point]"
CCC(=O)NCCc1nc2cc(NC(=O)c3ccc(OC)cc3)ccc2n1C,34.5%,"11600 nM [rising, partial curve, poor fit]",
O=C(c1ccc(-n2cncn2)c([N+](=O)[O-])c1)N1CCN(S(=O)(=O)c2ccccc2Br)CC1,,,"65.1 nM [rising, full curve, poor fit]"
